The M2OR odorant receptor database
The entries are a selection whose mix differs from that of the whole data set. Calls are pooled over several reports, among them a noisy single-well screen. This is one part of the list.

Experiments:
Conditions in all cases: stereoisomer not certain
OR6K2 (Homo sapiens) = molecular target: T1, OR6K2 (Homo sapiens) (UniProt Q8NGY2)
T1 sequence (whole entry): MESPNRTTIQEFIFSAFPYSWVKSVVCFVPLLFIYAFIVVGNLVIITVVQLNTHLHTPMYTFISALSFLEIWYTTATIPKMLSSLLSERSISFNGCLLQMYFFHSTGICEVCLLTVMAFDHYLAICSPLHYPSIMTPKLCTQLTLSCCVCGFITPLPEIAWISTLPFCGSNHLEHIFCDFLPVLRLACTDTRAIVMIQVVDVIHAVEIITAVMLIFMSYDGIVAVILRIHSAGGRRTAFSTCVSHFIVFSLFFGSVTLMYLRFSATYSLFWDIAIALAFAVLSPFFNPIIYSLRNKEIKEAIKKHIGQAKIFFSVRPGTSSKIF
Method in brief: (§1)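 Whether a receptor–molecule pair is responsive (active) rests on the original authors' judgment that its measured signal was statistically different from baseline. Pairs without that judgment are non-responsive (inactive). Sources used varied assay methods, commonly transient luciferase assays in mammalian cell lines.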

OR6K3 [1] = tested on: T2, OR6K3
T2 sequence (whole entry): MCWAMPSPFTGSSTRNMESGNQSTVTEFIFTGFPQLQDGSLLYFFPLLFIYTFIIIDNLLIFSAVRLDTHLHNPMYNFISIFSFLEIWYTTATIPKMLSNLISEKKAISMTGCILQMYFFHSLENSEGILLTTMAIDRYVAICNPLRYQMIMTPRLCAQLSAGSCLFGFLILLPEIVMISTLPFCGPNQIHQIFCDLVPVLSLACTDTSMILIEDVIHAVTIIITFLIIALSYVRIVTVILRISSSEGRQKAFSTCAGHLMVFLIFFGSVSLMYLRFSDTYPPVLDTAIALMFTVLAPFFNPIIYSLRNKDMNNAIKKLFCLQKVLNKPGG
Method in brief: as §1

OR6K3 [2] = tested on: T3, OR6K3; remark: listed apart in the source
T3 sequence (whole entry): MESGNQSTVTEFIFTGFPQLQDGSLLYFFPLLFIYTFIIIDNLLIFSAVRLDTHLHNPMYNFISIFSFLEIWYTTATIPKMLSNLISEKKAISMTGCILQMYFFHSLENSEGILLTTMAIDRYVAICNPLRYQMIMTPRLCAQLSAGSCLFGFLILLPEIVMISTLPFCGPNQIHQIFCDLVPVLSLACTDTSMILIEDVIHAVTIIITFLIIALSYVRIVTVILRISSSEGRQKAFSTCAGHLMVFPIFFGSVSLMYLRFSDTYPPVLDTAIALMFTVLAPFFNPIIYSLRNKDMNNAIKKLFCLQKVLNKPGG
Method in brief: as §1

OR6K6 [3] = tested on: T4, OR6K6
T4 sequence (whole entry): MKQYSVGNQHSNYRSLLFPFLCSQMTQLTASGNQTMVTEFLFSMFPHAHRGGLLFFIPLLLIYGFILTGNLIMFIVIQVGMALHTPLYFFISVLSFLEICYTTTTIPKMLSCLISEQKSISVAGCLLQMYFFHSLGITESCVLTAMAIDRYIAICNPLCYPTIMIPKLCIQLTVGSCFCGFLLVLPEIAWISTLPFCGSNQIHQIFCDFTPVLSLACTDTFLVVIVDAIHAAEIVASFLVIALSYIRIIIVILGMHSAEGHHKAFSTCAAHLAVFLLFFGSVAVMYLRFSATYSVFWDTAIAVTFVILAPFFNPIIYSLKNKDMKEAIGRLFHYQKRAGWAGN
Method in brief: as §1

OR6K6 [4] = tested on: T5, OR6K6; remark: listed apart in the source
T5 sequence (whole entry): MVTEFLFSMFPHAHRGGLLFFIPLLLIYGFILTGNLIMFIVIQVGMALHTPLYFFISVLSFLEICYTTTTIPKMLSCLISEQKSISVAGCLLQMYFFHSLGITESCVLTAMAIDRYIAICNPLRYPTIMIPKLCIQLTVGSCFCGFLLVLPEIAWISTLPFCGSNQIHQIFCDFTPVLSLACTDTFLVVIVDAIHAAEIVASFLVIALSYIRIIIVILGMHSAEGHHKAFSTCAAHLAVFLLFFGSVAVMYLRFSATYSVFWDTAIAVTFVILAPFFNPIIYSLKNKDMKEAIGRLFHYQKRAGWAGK
Method in brief: as §1

OR6M1 (Homo sapiens) = molecular target: T6, OR6M1 (Homo sapiens) (UniProt Q8NGM8)
T6 sequence (whole entry): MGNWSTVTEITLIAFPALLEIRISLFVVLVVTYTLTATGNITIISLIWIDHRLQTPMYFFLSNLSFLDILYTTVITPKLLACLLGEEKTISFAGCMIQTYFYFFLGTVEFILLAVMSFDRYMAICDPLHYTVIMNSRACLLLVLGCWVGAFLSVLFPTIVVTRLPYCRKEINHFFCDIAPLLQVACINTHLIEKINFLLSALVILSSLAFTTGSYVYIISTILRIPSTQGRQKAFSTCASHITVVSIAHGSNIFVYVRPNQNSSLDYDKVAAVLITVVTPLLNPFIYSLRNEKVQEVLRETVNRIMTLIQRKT
Method in brief: as §1

OR6N1 = tested on: T7, OR6N1
T7 sequence (whole entry): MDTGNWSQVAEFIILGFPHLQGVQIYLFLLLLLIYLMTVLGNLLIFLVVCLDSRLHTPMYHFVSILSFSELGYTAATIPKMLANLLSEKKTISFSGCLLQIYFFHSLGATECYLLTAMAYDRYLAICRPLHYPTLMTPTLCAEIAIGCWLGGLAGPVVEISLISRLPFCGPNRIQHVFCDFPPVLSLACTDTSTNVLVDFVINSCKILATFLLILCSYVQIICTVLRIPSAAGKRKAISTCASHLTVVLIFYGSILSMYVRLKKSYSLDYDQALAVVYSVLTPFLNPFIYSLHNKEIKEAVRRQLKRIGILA
Method in brief: as §1

OR6N2 (Homo sapiens) = molecular target: T8, OR6N2 (Homo sapiens) (UniProt Q8NGY6)
T8 sequence (whole entry): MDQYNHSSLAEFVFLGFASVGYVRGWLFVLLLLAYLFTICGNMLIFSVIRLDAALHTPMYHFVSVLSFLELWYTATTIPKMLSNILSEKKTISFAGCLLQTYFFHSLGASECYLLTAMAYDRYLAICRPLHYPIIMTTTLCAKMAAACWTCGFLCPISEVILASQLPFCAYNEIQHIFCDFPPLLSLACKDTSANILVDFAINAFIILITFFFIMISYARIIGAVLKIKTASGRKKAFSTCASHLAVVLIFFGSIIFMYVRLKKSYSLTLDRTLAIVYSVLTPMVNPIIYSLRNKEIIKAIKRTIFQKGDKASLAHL
Method in brief: as §1

OR6P1 (Homo sapiens) = molecular target: T9, OR6P1 (Homo sapiens) (UniProt Q8NGX9)
T9 sequence (whole entry): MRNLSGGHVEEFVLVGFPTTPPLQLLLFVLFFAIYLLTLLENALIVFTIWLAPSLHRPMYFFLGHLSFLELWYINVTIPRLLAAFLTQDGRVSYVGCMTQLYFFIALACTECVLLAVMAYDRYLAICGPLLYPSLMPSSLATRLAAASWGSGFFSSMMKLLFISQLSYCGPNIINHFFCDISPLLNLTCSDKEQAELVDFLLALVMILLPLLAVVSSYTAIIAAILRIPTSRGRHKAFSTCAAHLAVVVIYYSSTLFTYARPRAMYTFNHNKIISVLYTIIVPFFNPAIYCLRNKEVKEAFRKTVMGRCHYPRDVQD
Method in brief: as §1

OR6Q1 (Homo sapiens) = molecular target: T10, OR6Q1 (Homo sapiens) (UniProt Q8NGQ2)
T10 sequence (whole entry): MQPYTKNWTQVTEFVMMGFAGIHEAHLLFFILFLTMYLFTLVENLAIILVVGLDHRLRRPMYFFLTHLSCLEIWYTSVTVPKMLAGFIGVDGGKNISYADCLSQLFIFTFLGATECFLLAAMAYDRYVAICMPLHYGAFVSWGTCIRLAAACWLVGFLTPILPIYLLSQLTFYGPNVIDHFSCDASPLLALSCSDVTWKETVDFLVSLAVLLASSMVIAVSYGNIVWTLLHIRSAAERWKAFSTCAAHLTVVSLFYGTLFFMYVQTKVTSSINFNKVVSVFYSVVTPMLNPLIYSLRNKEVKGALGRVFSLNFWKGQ
Method in brief: as §1

Measured: odorant receptor agonist call;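 also: active if original authors judged signal statistically different from baseline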

CCC(C)=O
inactive: all assays above
